# PMC7819943, “Rice protein-binding microarrays: a tool to detect cis-acting elements near promoter regions in rice”
# This is one part of the list.
# Target: T1, OsSMF1 (Oryza sativa, UniProt Q6ZLB0 1-436)
# T1 sequence: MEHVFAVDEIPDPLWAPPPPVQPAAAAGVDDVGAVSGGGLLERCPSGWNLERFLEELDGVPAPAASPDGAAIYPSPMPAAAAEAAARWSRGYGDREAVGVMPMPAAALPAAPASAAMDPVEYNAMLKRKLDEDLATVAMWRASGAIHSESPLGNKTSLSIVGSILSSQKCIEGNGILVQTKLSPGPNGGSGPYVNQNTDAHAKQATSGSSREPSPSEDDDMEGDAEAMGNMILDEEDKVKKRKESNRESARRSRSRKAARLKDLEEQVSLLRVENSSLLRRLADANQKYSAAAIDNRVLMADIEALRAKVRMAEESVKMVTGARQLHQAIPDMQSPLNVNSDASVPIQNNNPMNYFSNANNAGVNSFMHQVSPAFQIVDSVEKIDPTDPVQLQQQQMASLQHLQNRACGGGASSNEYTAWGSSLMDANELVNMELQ
# Experiment: protein-binding microarray (RPBM); PBS, 2% BSA, 51.3 ng/ul salmon testes DNA, 50 uM zinc acetate, 200 nM TF, 25 C, 1 h; high values mean tight binding
# Conditions: protein: recombinant; tags: N-terminal polyhistidine and DsRed monomer fusion (pET32a); chain copies: 2; label: CyDye5-dUTP incorporated in the synthesized complementary strand; 3' TTTTT single-stranded linker to array surface; dsDNA, one strand shown
# Procedure, shortened: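 Binding signal is defined as the fluorescence intensity of each feature in arbitrary units, read on an Axon 4000B scanner. Transcription factors with N-terminal polyhistidine and DsRed fusions came from E. coli BL21-CodonPlus and were purified on Ni–NTA. They were incubated at 200 nM for 1 h at 25 °C on a custom Agilent array that had been made double-stranded with Cy5-dUTP, with 50 µM zinc acetate present, and the array was washed.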
row,Sequence,binding signal
1,TACCAAACAGGCCCTAAATGGGCTACGAGCAACGAAGTTTCGGAGTCACCTAGTGCAG,18200 fluorescence intensity (a.u.)
2,GATGAATCGAATCCATTCCCAGCCAGCTGACGAGGTGTCTCGGAGTCACCTAGTGCAG,6070 fluorescence intensity (a.u.)
3,GCGTGGCGTGGTCACCACGACGCGTACGCCGACGGGCAGGCGGAGTCACCTAGTGCAG,3590 fluorescence intensity (a.u.)
4,CGCATGCGACAGACCATCACCGACACACGTGTGGTGGGGTCGGAGTCACCTAGTGCAG,3600 fluorescence intensity (a.u.)
5,TCTTAAGCTGATGATCTGTCTATTTCTGTGACAGTACCTCCGGAGTCACCTAGTGCAG,5030 fluorescence intensity (a.u.)
6,TATAAAATCTTGCTAAAATTTAGCAACCATACTAAAACTTCGGAGTCACCTAGTGCAG,3150 fluorescence intensity (a.u.)
7,TCCTGTGCTTACAACTCATACAGTATGCTCCTCAGAACACCGGAGTCACCTAGTGCAG,3240 fluorescence intensity (a.u.)
8,CAGAGAATCTAAGCCAAAGCTTTGATTAGATGGTGTGGTGCGGAGTCACCTAGTGCAG,3750 fluorescence intensity (a.u.)
9,CCCCTATAAAGCCATCTTTTATGTGACCACTCATGGGCTCCGGAGTCACCTAGTGCAG,3290 fluorescence intensity (a.u.)
10,AAATCTTACCTGCTCACGTGCCGTGCTGCCCGGTGTGCAGCGGAGTCACCTAGTGCAG,3900 fluorescence intensity (a.u.)
11,CTTGCGGCGATGGCCGTGGCGACCGTGGACGTGGCTGCCGCGGAGTCACCTAGTGCAG,3920 fluorescence intensity (a.u.)
12,GATCAAGCTAGCTAGTGGTACATGTACGTCCGTACGGTGCCGGAGTCACCTAGTGCAG,7000 fluorescence intensity (a.u.)
13,CCAGCTGTACGTGTGTCCCACCGTGGCGGCTATTTCGTCACGGAGTCACCTAGTGCAG,4810 fluorescence intensity (a.u.)
14,CTCGTTGGTGATGACAGTGACGGAATCCCCATGTTGACCTCGGAGTCACCTAGTGCAG,4130 fluorescence intensity (a.u.)
15,CCAAAGCTGTGCTACCACGAGAGCCCACGTCATCCCATCCCGGAGTCACCTAGTGCAG,22800 fluorescence intensity (a.u.)
16,ATAAATGTGAGAGCCACATCAGAATCTTCTTCGTTCGTTCCGGAGTCACCTAGTGCAG,6400 fluorescence intensity (a.u.)
17,TACGTGACATGCCATCGTGGCGTGCCCACGTGGAAAACAACGGAGTCACCTAGTGCAG,15000 fluorescence intensity (a.u.)
18,TTAAGATTCACATGATGTGTCCTCAGTTAGGTTTATCAGTCGGAGTCACCTAGTGCAG,3870 fluorescence intensity (a.u.)
19,GAAATGAATCTGAATACACGTGTTCATGTTTAACTCTAGACGGAGTCACCTAGTGCAG,6300 fluorescence intensity (a.u.)
20,CGCCGGTGCTGATGCTGATCGATCTTACGTCGCGTCGCGACGGAGTCACCTAGTGCAG,3280 fluorescence intensity (a.u.)
21,CTCCTTCCATTTGTACCCACGTCTGCTGTCCATTGACCGGCGGAGTCACCTAGTGCAG,6910 fluorescence intensity (a.u.)

row,Sequence,binding signal
1,ACCTCCTCAATCACACGCACATGTAATAGCTAGTCTAGTGCGGAGTCACCTAGTGCAG,3440 fluorescence intensity (a.u.)
2,CGAGAGCGAACGGCCGTCTGCCACGTCACTTTCGCCACCCCGGAGTCACCTAGTGCAG,41900 fluorescence intensity (a.u.)
3,CTCTTACAGTGACCTGATTCATCGACCTGTCACTTGTCTGCGGAGTCACCTAGTGCAG,6850 fluorescence intensity (a.u.)
4,TCTTTCTAGCACTCTGGTCCCACGTGTCATTATCTTAGAACGGAGTCACCTAGTGCAG,11900 fluorescence intensity (a.u.)
5,TTGCATCCACATATGATGTGGAATGAAGCAGCTGCTCGCACGGAGTCACCTAGTGCAG,3670 fluorescence intensity (a.u.)
6,ATGCTCCGGTGGACGTCATCTTCAGGCAAATCAAAACGATCGGAGTCACCTAGTGCAG,3400 fluorescence intensity (a.u.)
7,ACCAACTACACACTGACTGACATGTGGTCCCGGTGGGGCCCGGAGTCACCTAGTGCAG,4210 fluorescence intensity (a.u.)
8,TTTAATTAACAAAATTATTGGTGACAGAGACCGAATATATCGGAGTCACCTAGTGCAG,3360 fluorescence intensity (a.u.)
9,GTCTCCCACGTGTCCCATTCGCATCCGATTTGGCAATCTCCGGAGTCACCTAGTGCAG,5360 fluorescence intensity (a.u.)
10,GCTCCTCGGTCTCGGCGTTATCGGTGGCGTCACTGTCGTACGGAGTCACCTAGTGCAG,7320 fluorescence intensity (a.u.)
11,GTGTTCCGCAGCGGCCGGGAGACGCGCCGGCTTGTCCCCTCGGAGTCACCTAGTGCAG,42300 fluorescence intensity (a.u.)
12,ATGGATACAAAACCCATACGTGGCGCTTGCATGGCAATTACGGAGTCACCTAGTGCAG,6820 fluorescence intensity (a.u.)
13,CCCGGGCCTCGCCGCGCCGCGCCACGCCACGCCTCCGCCCCGGAGTCACCTAGTGCAG,7580 fluorescence intensity (a.u.)
14,GTCAAATCATGACGTAATTAGGCTTAAAAGATTTGTCTCGCGGAGTCACCTAGTGCAG,10000 fluorescence intensity (a.u.)
15,CACTCCATATTCAATGGAATGCCAGCGAAGGACGTGGTATCGGAGTCACCTAGTGCAG,4400 fluorescence intensity (a.u.)
16,AGTTTCCATATAAGAACCCAATAATCAAAATTCAAAATAACGGAGTCACCTAGTGCAG,33300 fluorescence intensity (a.u.)
17,GGGAGAGAAATAGATGAGGAAGAAGGGTTGGCGGTTGACACGGAGTCACCTAGTGCAG,3210 fluorescence intensity (a.u.)
18,ATATTTAACGGCTGTTGGTTTAGTGTTGTTGTAGGTGACTCGGAGTCACCTAGTGCAG,3470 fluorescence intensity (a.u.)
19,TAACAATGGGGAAACTCCTCTAGATATATCACGGTACAAGCGGAGTCACCTAGTGCAG,3240 fluorescence intensity (a.u.)
20,ATTCTGTTGCGTCATCATGTTCCTGTCTACAGAGCTATACCGGAGTCACCTAGTGCAG,8200 fluorescence intensity (a.u.)
21,CTCTCTCCCTTATCTACGGACTAAGAAACAGATGGTGGCGCGGAGTCACCTAGTGCAG,3920 fluorescence intensity (a.u.)

# Given tab-delimited: part of the list above.
row	Sequence	binding signal
14	CTCGTTGGTGATGACAGTGACGGAATCCCCATGTTGACCTCGGAGTCACCTAGTGCAG	4130 fluorescence intensity (a.u.)
20	ATTCTGTTGCGTCATCATGTTCCTGTCTACAGAGCTATACCGGAGTCACCTAGTGCAG	8200 fluorescence intensity (a.u.)
